According to the supplement of paper PMC12823440, “Inhibitors supercharge kinase turnover through native proteolytic circuits” (Nature, 2025):
Where a name gives a salt, the structure may show the parent alone. This is one part of the list. The calls rarely recur for the same compound in another form.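 Kinases, fused to nanoluciferase, were expressed in K562 cells; luminescence was measured every 4 h from 2 to 18 h as percent of control (DMSO = 100%, positive control = 0%). A time point is decreased if signal falls significantly (2 sigma). Hits were called by the authors by a rule that is not shown; the count of time points alone does not decide it.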

Protein sequences, listed by entry. Tags and fused reporters are not part of them. Lines headed by an entry give the natural chain unless they say otherwise; changes in a name come on top.
UniProt P31749: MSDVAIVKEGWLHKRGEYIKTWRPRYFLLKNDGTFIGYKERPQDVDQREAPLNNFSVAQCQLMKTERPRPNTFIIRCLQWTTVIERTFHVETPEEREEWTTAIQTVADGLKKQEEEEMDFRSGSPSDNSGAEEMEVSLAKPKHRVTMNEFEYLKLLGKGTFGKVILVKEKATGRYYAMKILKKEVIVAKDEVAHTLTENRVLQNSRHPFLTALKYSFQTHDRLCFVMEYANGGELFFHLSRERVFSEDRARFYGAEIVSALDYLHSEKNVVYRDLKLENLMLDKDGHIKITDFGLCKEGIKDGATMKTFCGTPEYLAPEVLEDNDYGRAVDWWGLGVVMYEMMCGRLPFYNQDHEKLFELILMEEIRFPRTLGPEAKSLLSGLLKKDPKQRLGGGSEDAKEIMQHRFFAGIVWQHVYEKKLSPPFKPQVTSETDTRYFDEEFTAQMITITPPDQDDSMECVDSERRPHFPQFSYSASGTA
UniProt P10398: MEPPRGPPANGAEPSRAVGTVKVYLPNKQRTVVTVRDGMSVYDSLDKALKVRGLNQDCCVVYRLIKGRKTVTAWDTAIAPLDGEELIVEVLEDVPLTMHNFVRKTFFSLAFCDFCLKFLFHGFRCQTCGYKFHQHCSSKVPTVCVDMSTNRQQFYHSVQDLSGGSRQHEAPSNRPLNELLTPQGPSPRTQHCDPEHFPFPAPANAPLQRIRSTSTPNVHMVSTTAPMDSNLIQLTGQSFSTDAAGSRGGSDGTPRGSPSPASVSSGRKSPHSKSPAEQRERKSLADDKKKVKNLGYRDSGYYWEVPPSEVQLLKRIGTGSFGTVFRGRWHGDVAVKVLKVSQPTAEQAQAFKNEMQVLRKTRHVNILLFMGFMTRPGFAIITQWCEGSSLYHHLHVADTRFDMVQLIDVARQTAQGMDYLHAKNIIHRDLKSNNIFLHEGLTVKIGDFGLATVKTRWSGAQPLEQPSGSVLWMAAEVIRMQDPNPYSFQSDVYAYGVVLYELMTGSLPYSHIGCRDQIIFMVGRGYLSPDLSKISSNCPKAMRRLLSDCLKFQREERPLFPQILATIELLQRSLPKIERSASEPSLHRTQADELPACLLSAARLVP
UniProt O14965: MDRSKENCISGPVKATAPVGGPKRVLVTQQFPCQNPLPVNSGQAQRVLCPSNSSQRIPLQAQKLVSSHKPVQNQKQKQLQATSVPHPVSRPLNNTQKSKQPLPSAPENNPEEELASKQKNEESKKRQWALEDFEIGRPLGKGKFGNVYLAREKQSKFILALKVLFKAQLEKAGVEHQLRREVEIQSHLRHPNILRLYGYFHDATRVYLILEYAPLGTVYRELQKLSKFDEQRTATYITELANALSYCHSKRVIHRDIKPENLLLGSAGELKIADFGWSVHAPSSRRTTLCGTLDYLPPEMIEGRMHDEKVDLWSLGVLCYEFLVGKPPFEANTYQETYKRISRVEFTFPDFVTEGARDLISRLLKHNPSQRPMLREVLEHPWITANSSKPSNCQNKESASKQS
UniProt Q96GD4, whole entry: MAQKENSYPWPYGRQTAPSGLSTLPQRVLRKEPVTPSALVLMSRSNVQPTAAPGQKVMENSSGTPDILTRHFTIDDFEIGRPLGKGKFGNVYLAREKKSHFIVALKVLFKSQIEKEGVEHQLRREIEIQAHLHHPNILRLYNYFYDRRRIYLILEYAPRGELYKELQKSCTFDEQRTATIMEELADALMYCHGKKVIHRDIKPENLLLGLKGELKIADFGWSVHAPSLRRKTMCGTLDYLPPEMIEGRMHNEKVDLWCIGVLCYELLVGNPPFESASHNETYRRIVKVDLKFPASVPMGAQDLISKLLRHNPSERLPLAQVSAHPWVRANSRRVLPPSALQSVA
UniProt Q9UQB9: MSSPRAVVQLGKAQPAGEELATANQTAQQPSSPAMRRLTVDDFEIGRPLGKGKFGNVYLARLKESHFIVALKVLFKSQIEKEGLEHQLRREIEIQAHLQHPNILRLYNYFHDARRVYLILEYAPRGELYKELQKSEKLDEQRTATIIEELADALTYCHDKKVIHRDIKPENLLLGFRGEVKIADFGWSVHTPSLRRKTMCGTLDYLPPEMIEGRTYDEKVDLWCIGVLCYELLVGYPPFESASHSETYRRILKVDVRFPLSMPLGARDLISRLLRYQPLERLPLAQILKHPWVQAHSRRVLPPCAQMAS
UniProt P51451: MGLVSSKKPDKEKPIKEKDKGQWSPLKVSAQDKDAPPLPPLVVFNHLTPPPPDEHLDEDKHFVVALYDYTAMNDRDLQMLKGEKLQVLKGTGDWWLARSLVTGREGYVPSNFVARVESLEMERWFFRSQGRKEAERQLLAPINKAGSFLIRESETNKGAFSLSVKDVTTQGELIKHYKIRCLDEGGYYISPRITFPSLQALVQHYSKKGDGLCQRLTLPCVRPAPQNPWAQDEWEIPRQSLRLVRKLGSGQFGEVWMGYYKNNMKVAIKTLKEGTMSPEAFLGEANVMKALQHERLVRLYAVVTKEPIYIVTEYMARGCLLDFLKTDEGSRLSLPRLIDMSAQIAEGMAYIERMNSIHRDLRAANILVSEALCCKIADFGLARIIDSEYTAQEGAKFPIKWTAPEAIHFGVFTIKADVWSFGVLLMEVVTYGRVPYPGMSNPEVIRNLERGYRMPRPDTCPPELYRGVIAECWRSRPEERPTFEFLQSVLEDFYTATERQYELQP
UniProt P51813: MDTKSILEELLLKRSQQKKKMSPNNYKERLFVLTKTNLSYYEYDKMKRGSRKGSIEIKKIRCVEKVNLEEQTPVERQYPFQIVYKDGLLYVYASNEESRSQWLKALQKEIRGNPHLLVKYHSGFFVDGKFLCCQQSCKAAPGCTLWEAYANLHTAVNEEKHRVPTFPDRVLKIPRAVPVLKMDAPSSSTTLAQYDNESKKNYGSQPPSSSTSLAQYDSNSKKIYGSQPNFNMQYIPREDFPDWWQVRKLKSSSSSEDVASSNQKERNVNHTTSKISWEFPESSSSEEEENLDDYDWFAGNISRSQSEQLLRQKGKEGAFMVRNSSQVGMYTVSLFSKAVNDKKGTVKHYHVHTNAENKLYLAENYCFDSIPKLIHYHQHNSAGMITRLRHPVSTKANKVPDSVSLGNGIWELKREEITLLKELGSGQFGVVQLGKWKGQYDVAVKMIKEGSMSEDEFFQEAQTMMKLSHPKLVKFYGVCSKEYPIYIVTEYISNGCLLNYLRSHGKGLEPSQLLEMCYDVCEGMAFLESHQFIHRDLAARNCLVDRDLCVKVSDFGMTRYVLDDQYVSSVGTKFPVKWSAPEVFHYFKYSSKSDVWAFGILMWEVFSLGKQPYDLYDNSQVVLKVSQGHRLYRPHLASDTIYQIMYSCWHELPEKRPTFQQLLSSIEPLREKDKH
UniProt Q06187: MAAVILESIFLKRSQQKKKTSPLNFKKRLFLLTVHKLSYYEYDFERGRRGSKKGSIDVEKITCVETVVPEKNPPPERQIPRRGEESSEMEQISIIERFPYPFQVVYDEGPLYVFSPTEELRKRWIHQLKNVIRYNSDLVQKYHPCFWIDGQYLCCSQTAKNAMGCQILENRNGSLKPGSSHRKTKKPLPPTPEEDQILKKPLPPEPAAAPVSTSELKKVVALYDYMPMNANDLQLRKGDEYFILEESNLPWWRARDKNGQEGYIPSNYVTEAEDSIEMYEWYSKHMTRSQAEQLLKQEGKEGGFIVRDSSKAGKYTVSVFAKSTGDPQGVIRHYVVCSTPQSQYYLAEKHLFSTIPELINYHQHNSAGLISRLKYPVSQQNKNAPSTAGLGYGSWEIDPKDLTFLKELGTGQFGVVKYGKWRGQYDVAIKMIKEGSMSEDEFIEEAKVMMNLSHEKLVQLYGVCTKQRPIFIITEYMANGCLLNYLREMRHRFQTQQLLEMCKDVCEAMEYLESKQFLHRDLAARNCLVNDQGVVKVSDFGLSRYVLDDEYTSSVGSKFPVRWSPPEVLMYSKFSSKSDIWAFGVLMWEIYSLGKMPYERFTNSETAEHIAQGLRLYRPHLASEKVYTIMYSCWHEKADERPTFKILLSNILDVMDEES
UniProt Q9UQM7, whole entry: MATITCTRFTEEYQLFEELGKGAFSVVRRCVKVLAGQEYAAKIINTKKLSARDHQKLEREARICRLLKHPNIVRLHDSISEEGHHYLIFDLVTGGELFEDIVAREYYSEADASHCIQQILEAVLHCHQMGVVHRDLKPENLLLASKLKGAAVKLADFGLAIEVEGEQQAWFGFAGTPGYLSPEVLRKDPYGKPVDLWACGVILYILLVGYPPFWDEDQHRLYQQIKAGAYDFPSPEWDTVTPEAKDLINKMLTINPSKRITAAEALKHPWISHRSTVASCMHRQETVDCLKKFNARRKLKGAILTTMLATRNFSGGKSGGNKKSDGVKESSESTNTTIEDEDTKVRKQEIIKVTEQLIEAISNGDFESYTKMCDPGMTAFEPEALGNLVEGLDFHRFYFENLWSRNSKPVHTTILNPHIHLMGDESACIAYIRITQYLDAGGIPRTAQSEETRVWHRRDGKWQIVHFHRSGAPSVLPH
UniProt Q15131: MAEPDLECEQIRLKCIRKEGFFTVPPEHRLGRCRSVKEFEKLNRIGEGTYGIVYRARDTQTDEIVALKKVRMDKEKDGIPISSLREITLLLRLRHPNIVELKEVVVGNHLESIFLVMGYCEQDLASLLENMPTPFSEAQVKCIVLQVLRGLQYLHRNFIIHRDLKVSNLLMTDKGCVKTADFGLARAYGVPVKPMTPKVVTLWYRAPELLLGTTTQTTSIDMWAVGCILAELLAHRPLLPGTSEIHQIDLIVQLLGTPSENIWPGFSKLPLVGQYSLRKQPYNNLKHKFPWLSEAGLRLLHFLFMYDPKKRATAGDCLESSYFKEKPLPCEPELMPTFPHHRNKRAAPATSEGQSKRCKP
UniProt Q00526: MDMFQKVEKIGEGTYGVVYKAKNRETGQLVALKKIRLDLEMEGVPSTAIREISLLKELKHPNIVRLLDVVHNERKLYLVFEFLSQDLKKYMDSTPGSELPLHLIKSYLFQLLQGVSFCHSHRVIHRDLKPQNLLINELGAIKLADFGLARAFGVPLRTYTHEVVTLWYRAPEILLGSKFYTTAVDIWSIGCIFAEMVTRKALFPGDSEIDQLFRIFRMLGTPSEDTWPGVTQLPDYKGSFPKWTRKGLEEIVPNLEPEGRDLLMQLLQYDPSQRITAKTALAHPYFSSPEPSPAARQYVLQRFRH
UniProt P11802: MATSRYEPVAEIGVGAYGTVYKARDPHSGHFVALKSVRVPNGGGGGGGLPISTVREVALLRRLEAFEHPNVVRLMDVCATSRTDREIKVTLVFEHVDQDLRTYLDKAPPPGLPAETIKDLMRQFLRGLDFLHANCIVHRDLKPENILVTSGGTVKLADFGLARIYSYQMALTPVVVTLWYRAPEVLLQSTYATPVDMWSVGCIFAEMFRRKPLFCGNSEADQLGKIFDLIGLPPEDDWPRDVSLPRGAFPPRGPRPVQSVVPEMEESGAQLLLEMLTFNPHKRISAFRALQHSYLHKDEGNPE
UniProt Q00535, whole entry, looked up: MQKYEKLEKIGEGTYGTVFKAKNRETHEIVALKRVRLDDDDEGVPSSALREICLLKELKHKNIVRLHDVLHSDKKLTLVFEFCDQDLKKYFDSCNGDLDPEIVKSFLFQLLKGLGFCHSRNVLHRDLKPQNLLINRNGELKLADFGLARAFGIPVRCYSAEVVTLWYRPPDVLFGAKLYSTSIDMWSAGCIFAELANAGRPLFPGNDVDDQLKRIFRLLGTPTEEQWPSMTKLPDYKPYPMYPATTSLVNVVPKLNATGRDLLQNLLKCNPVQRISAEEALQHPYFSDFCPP
UniProt Q00534, whole entry: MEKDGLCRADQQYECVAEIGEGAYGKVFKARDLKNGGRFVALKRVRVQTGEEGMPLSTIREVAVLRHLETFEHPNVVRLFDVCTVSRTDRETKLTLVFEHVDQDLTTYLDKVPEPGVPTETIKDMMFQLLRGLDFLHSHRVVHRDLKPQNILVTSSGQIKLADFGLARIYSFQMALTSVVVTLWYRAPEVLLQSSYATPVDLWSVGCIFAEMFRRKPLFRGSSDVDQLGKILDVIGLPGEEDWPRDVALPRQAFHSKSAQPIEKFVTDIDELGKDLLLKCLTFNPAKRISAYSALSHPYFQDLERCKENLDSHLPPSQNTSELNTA

Key:
Assay in all cases: kinase-Nluc reporter destabilization hit call (1 = scored as downregulated) (binary); higher = compound decreases kinase abundance
Conditions in all cases: K562; 2-18 h
[1] = biological target: ABL1 (UniProt P00519)
[2] = biological target: AKT1 (UniProt P31749)
[3] = biological target: ALK (UniProt Q9UM73)
[4] = biological target: ARAF (UniProt P10398)
[5] = biological target: AURKA (UniProt O14965)
[6] = biological target: AURKB (UniProt Q96GD4)
[7] = biological target: AURKC (UniProt Q9UQB9)
[8] = biological target: BLK (UniProt P51451)
[9] = biological target: BMX (UniProt P51813)
[10] = biological target: BRAF (UniProt P15056)
[11] = tested on: BRAF_V600E
[12] = biological target: BTK (UniProt Q06187)
[13] = biological target: CAMK2A (UniProt Q9UQM7)
[14] = biological target: CAMK2G (UniProt Q13555)
[15] = biological target: CDK10 (UniProt Q15131)
[16] = biological target: CDK2 (UniProt P24941)
[17] = biological target: CDK3 (UniProt Q00526)
[18] = biological target: CDK4 (UniProt P11802)
[19] = biological target: CDK5 (UniProt Q00535)
[20] = biological target: CDK6 (UniProt Q00534)

Row | SMILES | kinase-Nluc reporter destabilization hit call [1] | kinase-Nluc reporter destabilization hit call [2] | kinase-Nluc reporter destabilization hit call [3] | kinase-Nluc reporter destabilization hit call [4] | kinase-Nluc reporter destabilization hit call [5] | kinase-Nluc reporter destabilization hit call [6] | kinase-Nluc reporter destabilization hit call [7] | kinase-Nluc reporter destabilization hit call [8] | kinase-Nluc reporter destabilization hit call [9] | kinase-Nluc reporter destabilization hit call [10] | kinase-Nluc reporter destabilization hit call [11] | kinase-Nluc reporter destabilization hit call [12] | kinase-Nluc reporter destabilization hit call [13] | kinase-Nluc reporter destabilization hit call [14] | kinase-Nluc reporter destabilization hit call [15] | kinase-Nluc reporter destabilization hit call [16] | kinase-Nluc reporter destabilization hit call [17] | kinase-Nluc reporter destabilization hit call [18] | kinase-Nluc reporter destabilization hit call [19] | kinase-Nluc reporter destabilization hit call [20]
1 | C/C=C(/C)C(=O)O[C@H]1Cc2cc3ccc(=O)oc3cc2OC1(C)C [Decursinol angelate] (10 µM) | inactive: 0 | inactive: 0 | inactive: 0 | inactive: 0 | inactive: 0 | inactive: 0 | inactive: 0 | inactive: 0 | inactive: 0 | inactive: 0 | inactive: 0 | inactive: 0 | inactive: 0 | inactive: 0 | inactive: 0 | inactive: 0 | inactive: 0 | inactive: 0 | inactive: 0 | inactive: 0
2 | CCC(=O)N1CCN(c2ccc(-n3c(=O)ccc4cnc5ccc(-c6cnc7ccccc7c6)cc5c43)cc2C(F)(F)F)CC1 [Torin 1] (2 µM) | active: 1 | inactive: 0 | inactive: 0 | inactive: 0 | inactive: 0 | inactive: 0 | inactive: 0 | inactive: 0 | inactive: 0 | inactive: 0 | inactive: 0 | inactive: 0 | inactive: 0 | inactive: 0 | inactive: 0 | inactive: 0 | inactive: 0 | inactive: 0 | inactive: 0 | inactive: 0
3 | C=CC(=O)N[C@H]1COC[C@H]1Nc1ncc2cc(-c3c(Cl)c(OC)cc(OC)c3Cl)c(=O)n(C)c2n1 (10 µM) | inactive: 0 | inactive: 0 | inactive: 0 | inactive: 0 | inactive: 0 | inactive: 0 | inactive: 0 | inactive: 0 | inactive: 0 | inactive: 0 | inactive: 0 | inactive: 0 | inactive: 0 | inactive: 0 | inactive: 0 | inactive: 0 | inactive: 0 | inactive: 0 | inactive: 0 | inactive: 0
4 | C=CC(=O)N1CCN(CCCn2c(=O)c(-c3c(Cl)c(OC)cc(OC)c3Cl)cc3cnc(NC)nc32)CC1 (10 µM) | inactive: 0 | inactive: 0 | inactive: 0 | inactive: 0 | inactive: 0 | inactive: 0 | inactive: 0 | inactive: 0 | inactive: 0 | inactive: 0 | inactive: 0 | inactive: 0 | inactive: 0 | inactive: 0 | inactive: 0 | inactive: 0 | inactive: 0 | inactive: 0 | inactive: 0 | inactive: 0
5 | N#CC(=Cc1ccc(O)c(O)c1)C(=O)NCc1ccccc1 (mixture of isomers) (10 µM) | inactive: 0 | inactive: 0 | inactive: 0 | inactive: 0 | inactive: 0 | inactive: 0 | inactive: 0 | inactive: 0 | inactive: 0 | inactive: 0 | inactive: 0 | inactive: 0 | inactive: 0 | inactive: 0 | inactive: 0 | inactive: 0 | inactive: 0 | inactive: 0 | inactive: 0 | inactive: 0
6 | CCn1cc(-c2ccnc3[nH]c(-c4cccc(CN(C)C)c4)cc23)c(-c2ccc(NC(=O)N(C)C)cc2)n1 (2.5 µM) | inactive: 0 | inactive: 0 | inactive: 0 | inactive: 0 | inactive: 0 | inactive: 0 | inactive: 0 | inactive: 0 | inactive: 0 | inactive: 0 | inactive: 0 | inactive: 0 | inactive: 0 | inactive: 0 | inactive: 0 | inactive: 0 | inactive: 0 | inactive: 0 | inactive: 0 | inactive: 0
7 | Cc1ccc2c(Nc3cccc(OC(F)(F)F)c3)nccc2c1Nc1ncccc1-c1ncnc2[nH]cnc12 (10 µM) | inactive: 0 | inactive: 0 | inactive: 0 | inactive: 0 | inactive: 0 | inactive: 0 | inactive: 0 | inactive: 0 | inactive: 0 | inactive: 0 | inactive: 0 | inactive: 0 | inactive: 0 | inactive: 0 | inactive: 0 | inactive: 0 | inactive: 0 | inactive: 0 | inactive: 0 | inactive: 0
8 | Cc1[nH]c(/C=C2\C(=O)Nc3ccc(S(=O)(=O)Cc4c(Cl)cccc4Cl)cc32)c(C)c1C(=O)N1CCC[C@@H]1CN1CCCC1 (2.5 µM) | inactive: 0 | inactive: 0 | inactive: 0 | inactive: 0 | inactive: 0 | inactive: 0 | inactive: 0 | inactive: 0 | inactive: 0 | inactive: 0 | inactive: 0 | inactive: 0 | inactive: 0 | – | inactive: 0 | inactive: 0 | inactive: 0 | inactive: 0 | inactive: 0 | inactive: 0
9 | Cc1c(NC(=O)c2cc3c(s2)CCCC3)cccc1-c1cn(C)c(=O)c(Nc2ccc([C@@H]3C(=O)N(C)CCN3C)cc2)n1 (10 µM) | inactive: 0 | inactive: 0 | inactive: 0 | inactive: 0 | inactive: 0 | inactive: 0 | inactive: 0 | inactive: 0 | inactive: 0 | inactive: 0 | inactive: 0 | – | inactive: 0 | inactive: 0 | inactive: 0 | inactive: 0 | inactive: 0 | inactive: 0 | inactive: 0 | inactive: 0
10 | COc1nccc(-c2c(-c3ccc(F)cc3)ncn2C2CCC(O)CC2)n1 (stereo not given) (10 µM) | inactive: 0 | inactive: 0 | inactive: 0 | inactive: 0 | inactive: 0 | inactive: 0 | inactive: 0 | inactive: 0 | inactive: 0 | inactive: 0 | inactive: 0 | – | inactive: 0 | inactive: 0 | inactive: 0 | inactive: 0 | inactive: 0 | inactive: 0 | inactive: 0 | inactive: 0
11 | CCc1nc(-c2cccc(C)c2)c(-c2ccnc(NC(=O)c3ccccc3)c2)s1 (10 µM) | inactive: 0 | inactive: 0 | inactive: 0 | inactive: 0 | inactive: 0 | inactive: 0 | inactive: 0 | inactive: 0 | inactive: 0 | inactive: 0 | inactive: 0 | – | inactive: 0 | inactive: 0 | inactive: 0 | inactive: 0 | inactive: 0 | inactive: 0 | inactive: 0 | inactive: 0
12 | COc1cc2ncnc(Nc3cccc(O)c3)c2cc1OC (10 µM) | inactive: 0 | inactive: 0 | inactive: 0 | inactive: 0 | inactive: 0 | inactive: 0 | inactive: 0 | inactive: 0 | inactive: 0 | inactive: 0 | inactive: 0 | inactive: 0 | inactive: 0 | inactive: 0 | inactive: 0 | – | inactive: 0 | inactive: 0 | inactive: 0 | inactive: 0
13 | CC(C)c1cnn2c(NCc3ccccc3)cc(NC[C@H]3CCNC[C@@H]3O)nc12 [Samuraciclib (hydrochloride)] (10 µM) | inactive: 0 | inactive: 0 | inactive: 0 | inactive: 0 | inactive: 0 | inactive: 0 | inactive: 0 | inactive: 0 | inactive: 0 | inactive: 0 | inactive: 0 | inactive: 0 | inactive: 0 | inactive: 0 | inactive: 0 | – | inactive: 0 | inactive: 0 | inactive: 0 | inactive: 0
14 | CC(C)Oc1cc(Nc2nc(N[C@@H](C)c3ccc(F)cn3)ncc2Cl)n[nH]1 (10 µM) | inactive: 0 | inactive: 0 | inactive: 0 | inactive: 0 | inactive: 0 | inactive: 0 | inactive: 0 | inactive: 0 | inactive: 0 | inactive: 0 | inactive: 0 | inactive: 0 | inactive: 0 | inactive: 0 | inactive: 0 | inactive: 0 | inactive: 0 | inactive: 0 | – | inactive: 0
15 | Cn1c(=O)n(-c2ccc(C(C)(C)C#N)cc2)c2c3cc(-c4cnc5ccccc5c4)ccc3ncc21 [Dactolisib (Tosylate)] (10 µM) | active: 1 | inactive: 0 | inactive: 0 | inactive: 0 | inactive: 0 | inactive: 0 | inactive: 0 | inactive: 0 | inactive: 0 | active: 1 | inactive: 0 | – | inactive: 0 | inactive: 0 | inactive: 0 | inactive: 0 | inactive: 0 | inactive: 0 | inactive: 0 | inactive: 0
16 | O=C1c2ccccc2-c2n[nH]c3cccc1c23 (10 µM) | inactive: 0 | inactive: 0 | inactive: 0 | inactive: 0 | inactive: 0 | inactive: 0 | inactive: 0 | inactive: 0 | inactive: 0 | inactive: 0 | inactive: 0 | inactive: 0 | inactive: 0 | inactive: 0 | inactive: 0 | inactive: 0 | inactive: 0 | inactive: 0 | – | inactive: 0
17 | O=C1NCCc2[nH]c(-c3ccnc(-c4cnc5ccccc5c4)c3)cc21 (10 µM) | inactive: 0 | inactive: 0 | inactive: 0 | inactive: 0 | inactive: 0 | inactive: 0 | inactive: 0 | inactive: 0 | inactive: 0 | inactive: 0 | inactive: 0 | – | inactive: 0 | inactive: 0 | inactive: 0 | inactive: 0 | inactive: 0 | inactive: 0 | inactive: 0 | inactive: 0
18 | CCN(CC)CCCCNc1ncc2cc(-c3c(Cl)cccc3Cl)c(NC(=O)NC(C)(C)C)nc2n1 (2.5 µM) | inactive: 0 | inactive: 0 | inactive: 0 | inactive: 0 | inactive: 0 | inactive: 0 | inactive: 0 | inactive: 0 | inactive: 0 | inactive: 0 | inactive: 0 | inactive: 0 | inactive: 0 | inactive: 0 | inactive: 0 | inactive: 0 | inactive: 0 | inactive: 0 | inactive: 0 | inactive: 0

2 of the compounds above, as tab-separated lines:
Row	SMILES	kinase-Nluc reporter destabilization hit call [1]	kinase-Nluc reporter destabilization hit call [2]	kinase-Nluc reporter destabilization hit call [3]	kinase-Nluc reporter destabilization hit call [4]	kinase-Nluc reporter destabilization hit call [5]	kinase-Nluc reporter destabilization hit call [6]	kinase-Nluc reporter destabilization hit call [7]	kinase-Nluc reporter destabilization hit call [8]	kinase-Nluc reporter destabilization hit call [9]	kinase-Nluc reporter destabilization hit call [10]	kinase-Nluc reporter destabilization hit call [11]	kinase-Nluc reporter destabilization hit call [12]	kinase-Nluc reporter destabilization hit call [13]	kinase-Nluc reporter destabilization hit call [14]	kinase-Nluc reporter destabilization hit call [15]	kinase-Nluc reporter destabilization hit call [16]	kinase-Nluc reporter destabilization hit call [17]	kinase-Nluc reporter destabilization hit call [18]	kinase-Nluc reporter destabilization hit call [19]	kinase-Nluc reporter destabilization hit call [20]
10	COc1nccc(-c2c(-c3ccc(F)cc3)ncn2C2CCC(O)CC2)n1 (stereo not given) (10 µM)	inactive: 0	inactive: 0	inactive: 0	inactive: 0	inactive: 0	inactive: 0	inactive: 0	inactive: 0	inactive: 0	inactive: 0	inactive: 0	–	inactive: 0	inactive: 0	inactive: 0	inactive: 0	inactive: 0	inactive: 0	inactive: 0	inactive: 0
11	CCc1nc(-c2cccc(C)c2)c(-c2ccnc(NC(=O)c3ccccc3)c2)s1 (10 µM)	inactive: 0	inactive: 0	inactive: 0	inactive: 0	inactive: 0	inactive: 0	inactive: 0	inactive: 0	inactive: 0	inactive: 0	inactive: 0	–	inactive: 0	inactive: 0	inactive: 0	inactive: 0	inactive: 0	inactive: 0	inactive: 0	inactive: 0
